Data source: PubChem BioAssay AID1159578 (Peter MacCallum Cancer Centre, 2015)
Test: 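Knock-downs that alter how fast lymphatic endothelial cells migrate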 (primary screen). System: human lymphatic endothelial cells. Knock-down reagent: siRNA pool against human genes, 40 nM. Time to read-out: 48 h after transfection. Detection: 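High-content imaging of dye-stained cells in a scratch assay measures filled wound area and nuclei per well; duplicate means given as ratio to mock and robust z-score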. Direction: migration robust z-score: higher = faster migration into the scratch; migration relative to mock: higher = more scratch area covered than mock; nuclei per well: higher = more cells in the well. Hit rule: 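Migration changed when robust z exceeds 2 or falls below -2 and mean nuclei number is at least 3300; otherwise not called changed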. Meaning of the calls: active = migration changed; inactive = no migration change, or too few cells.
The whole screen tested about 18,000 reagents; shown is an unselected part. Over the whole deposit, about 1,030 (5.7%) were called active. 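Inactive calls also include pools with fewer than 3300 nuclei, whose migration was not assessed.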 Raw values are not corrected between plates. A number with no mark means an inactive call.

no.	target	migration robust z-score	migration class with cell-count check	migration relative to mock	nuclei per well, duplicate mean
1	CBX4	-0.78	migration z between -2 and 2; enough cells	0.66	5574
2	KLHL36	1.41	migration z between -2 and 2; enough cells	1.25	5648
3	CFAP298	0.19	migration z between -2 and 2; enough cells	0.94	4932
4	RHOT1	0.06	migration z between -2 and 2; enough cells	0.9	6476
5	MORN3	0.85	migration z between -2 and 2; enough cells	1.1	6490
6	LPP	0.52	migration z between -2 and 2; enough cells	1.02	5882
7	ESD	-0.64	migration z between -2 and 2; enough cells	0.72	6821
8	ACOT7	0.8	migration z between -2 and 2; enough cells	0.96	5407
9	NCKAP5L	0.34	migration z between -2 and 2; enough cells	0.98	5690
10	FAM3D	-1.36	migration z between -2 and 2; enough cells	0.53	6020
11	CCDC102A	-2.38 (active)	migration z below -2; enough cells	0.28	5148
12	XPO5	0.48	migration z between -2 and 2; enough cells	1.01	5940
13	MEOX2	0.26	migration z between -2 and 2; enough cells	0.86	5954
14	FLYWCH2	-0.73	migration z between -2 and 2; enough cells	0.7	4386
15	PIGK	-0.62	migration z between -2 and 2; enough cells	0.68	4860
16	REG3G	-1.61	migration z between -2 and 2; enough cells	0.47	4332
17	NUDT16L1	0.7	migration z between -2 and 2; enough cells	1.06	5364
18	YBEY	-1.91	migration z between -2 and 2; enough cells	0.38	4840
19	HMBOX1	0.82	migration z between -2 and 2; enough cells	1.1	6280
20	BMF	1.11	migration z between -2 and 2; enough cells	1.17	5945
21	PARD6G	0.35	migration z between -2 and 2; enough cells	0.98	4822
22	KRTAP5-4	-0.87	migration z between -2 and 2; enough cells	0.66	5582
23	JPH1	0.7	migration z between -2 and 2; enough cells	1.07	6632
24	SBNO1	-0.57	migration z between -2 and 2; enough cells	0.74	5760
25	FXYD7	-1.84	migration z between -2 and 2; enough cells	0.45	4604
26	FAM228A	0.32	migration z between -2 and 2; enough cells	0.97	5826
27	TTC33	-0.96	migration z between -2 and 2; enough cells	0.64	6932
28	BCL7C	0.9	migration z between -2 and 2; enough cells	1.12	6004
29	PRR30	0.32	migration z between -2 and 2; enough cells	0.97	4838
30	SH2D2A	-0.38	migration z between -2 and 2; enough cells	0.79	6359
31	CDC42	-2.46 (active)	migration z below -2; enough cells	0.33	5348
32	BACC1	0.78	migration z between -2 and 2; enough cells	1.09	5504
33	NT5C2	0.26	migration z between -2 and 2; enough cells	0.86	5916
34	ANTXR1	-0.38	migration z between -2 and 2; enough cells	0.78	6407
35	LAMTOR4	1.38	migration z between -2 and 2; enough cells	1.25	7361
36	LINGO4	0.89	migration z between -2 and 2; enough cells	1.12	6144
37	CLCF1	0.1	migration z between -2 and 2; enough cells	0.82	5898
38	TUFT1	-0.45	migration z between -2 and 2; enough cells	0.77	5832
39	ISL1	0.65	migration z between -2 and 2; enough cells	0.93	5446
40	TMEM160	0.78	migration z between -2 and 2; enough cells	1.08	5036
41	PXDN	-0.47	migration z between -2 and 2; enough cells	0.72	5754
42	CPSF2	-0.96	migration z between -2 and 2; enough cells	0.64	5620
43	IPO4	0.86	migration z between -2 and 2; enough cells	1.11	6358
44	PDK2	-1.17	migration z between -2 and 2; enough cells	0.58	4963
45	NAP1L2	0.71	migration z between -2 and 2; enough cells	1.07	5686
46	SLC25A30	1	migration z between -2 and 2; enough cells	1.14	5302
47	TRIM27	-2.21 (active)	migration z below -2; enough cells	0.38	3357
48	POU2F3	0.36	migration z between -2 and 2; enough cells	0.88	6198
49	ITGA5	-0.91	migration z between -2 and 2; enough cells	0.63	5714
50	AQP7	-0.36	migration z between -2 and 2; enough cells	0.74	4538
51	LPAL2	-2.34	under 3300 nuclei; migration not judged	0.36	3288
52	ZFP36	-0.62	migration z between -2 and 2; enough cells	0.72	4292
53	COX4I2	1.04	migration z between -2 and 2; enough cells	1.01	4135
54	CCDC73	2.7 (active)	migration z above 2; enough cells	1.58	7199
55	TMEM164	-0.2	migration z between -2 and 2; enough cells	0.83	3824
56	FBXO30	-0.68	migration z between -2 and 2; enough cells	0.68	5417
57	TRPM7	0.13	migration z between -2 and 2; enough cells	0.83	6360

As entered above:
Entry of CPSF2 under “migration robust z-score”: -0.96
For “nuclei per well, duplicate mean”, PXDN is entered as 5754
Value of TRPM7 under “migration class with cell-count check”: migration z between -2 and 2; enough cells
Value for ANTXR1 in “migration robust z-score”: -0.38
ITGA5, migration class with cell-count check: migration z between -2 and 2; enough cells
Value for NCKAP5L in “migration class with cell-count check”: migration z between -2 and 2; enough cells
